# According to the supplement of paper PMC6331611:
# ± gives the standard deviation of the averaged measurements. Over roughly 1,600 compounds, “normalized growth (OD600, IQM-normalized) in LPM” has its median near 1; the lowest 2% begin near 0.014. Some of the results follow.
# Test system: Salmonella enterica serovar Typhimurium SL1344
# Assay: normalized growth (OD600, IQM-normalized) in LPM (fraction of plate interquartile mean); higher = more bacterial growth (less inhibition)
# Details: LPM pH 5.8; 10 µM; 16 h
row,Structure (SMILES),normalized growth
1,O=C(O)Cc1cc(I)c(Oc2ccc(O)c(I)c2)c(I)c1,1.05 ± 0.0084
2,CC(=O)OCC(=O)[C@@]12OC3(CCCC3)O[C@@H]1C[C@H]1[C@@H]3CCC4=CC(=O)C=C[C@]4(C)[C@@]3(F)[C@@H](O)C[C@@]12C,1.07 ± 0.022
3,Cc1oc(=O)oc1CN1CCN(c2cc3c(cc2F)c(=O)c(C(=O)O)c2n3C(C)S2)CC1 (stereo not given),0.00846 ± 7.6e-05
4,C=COCC(F)(F)F,0.991 ± 0.044
5,N[C@@H](CC(=O)N1CCn2c(nnc2C(F)(F)F)C1)Cc1cc(F)c(F)cc1F,1.026 ± 0.0062
6,O=C(Nc1ccccc1)OCC(CN1CCCCC1)OC(=O)Nc1ccccc1 (stereo not given),0.903 ± 0.047
7,N=C(N)c1ccc(N=NNc2ccc(C(=N)N)cc2)cc1,0.766 ± 0.035
8,CO/N=C(\C(=O)N[C@@H]1C(=O)N2C(C(=O)O)=C(CSC(=O)c3ccco3)CS[C@H]12)c1csc(N)n1,0.11 ± 0.0058
9,CCCC(=O)Nc1ccc(OCC(O)CNC(C)C)c(C(C)=O)c1 (stereo not given),0.963 ± 0.035
10,C[C@@H]1O[C@@H](OC[C@H]2O[C@@H](Oc3c(-c4ccc(O)c(O)c4)oc4cc(O)cc(O)c4c3=O)[C@H](O)[C@@H](O)[C@@H]2O)[C@H](O)[C@H](O)[C@H]1O,0.893 ± 0.13
11,COc1ccc2nc3cc(Cl)ccc3c(Nc3cc(CN4CCCC4)c(O)c(CN4CCCC4)c3)c2n1,0.69 ± 0.061
12,Nc1nc(=O)c2c([nH]1)NCC(CNc1ccc(C(=O)N[C@@H](CCC(=O)O)C(=O)O)cc1)N2C=O (stereo not given in full),0.948 ± 0.014
13,C=CCc1ccccc1OCC(O)CNC(C)C (stereo not given),0.895 ± 0.047
14,NC[C@H]1CC[C@H](C(=O)O)CC1,0.948 ± 0.047
15,CCCCOc1ccc(CC(=O)NO)cc1,0.819 ± 0.029
16,CC(=O)OC(C)C[N+](C)(C)C (stereo not given),1.12 ± 0.02
17,O=C(O)c1cc(=O)c2c(OCC(O)COc3cccc4oc(C(=O)O)cc(=O)c34)cccc2o1,0.977 ± 0.079
18,CC(=O)c1ccc2c(c1)N(CCCN1CCN(CCO)CC1)c1ccccc1S2,0.869 ± 0.053
19,OC[C@H]1O[C@H](O[C@H]2[C@H](O)[C@@H](O)C(O)O[C@@H]2CO)[C@H](O)[C@@H](O)[C@@H]1O (stereo not given in full),1.06 ± 0.12
20,CN(C)CCC(c1ccccc1)c1ccccn1 (stereo not given),0.946 ± 0.076
21,CC(C)CCC[C@@H](C)[C@H]1CC[C@H]2[C@@H]3CC=C4C[C@@H](O)CC[C@]4(C)[C@H]3CC[C@]12C,1.08 ± 0.013
22,CCN(CC)C(=O)N1CCN(C)CC1,0.954 ± 0.031
23,O=P(O)(O)C(O)(Cc1cccnc1)P(=O)(O)O,1.06 ± 0.059
24,CC(=O)[C@H]1CC[C@H]2[C@@H]3CC=C4C[C@@H](OC(=O)CCC(=O)O)CC[C@]4(C)[C@H]3CC[C@]12C,1.02 ± 0.027
25,CC(CCc1ccc(O)cc1)NCC(O)c1ccc(O)cc1 (stereo not given),0.916 ± 0.069

# Part of the list above, with tabs.
row	Structure (SMILES)	normalized growth
17	O=C(O)c1cc(=O)c2c(OCC(O)COc3cccc4oc(C(=O)O)cc(=O)c34)cccc2o1	0.977 ± 0.079
20	CN(C)CCC(c1ccccc1)c1ccccn1 (stereo not given)	0.946 ± 0.076

# The listing continues.

row,Structure (SMILES),normalized growth
1,CCN(CCCc1ccccc1)CCCc1ccccc1,1.11 ± 0.048
2,CCCCC(CC)COC(=O)c1ccccc1O (stereo not given),0.9742 ± 0.005
3,CC[C@]1(O)C[C@@H]2CN(CCc3c([nH]c4ccccc34)[C@@](C(=O)OC)(c3cc4c(cc3OC)N(C)[C@H]3[C@@](O)(C(=O)OC)[C@H](OC(C)=O)[C@]5(CC)C=CCN6CC[C@]43[C@@H]65)C2)C1,1.06 ± 0.075
4,NC(=O)NO,0.991 ± 0.043
5,Clc1ccccc1C(c1ccccc1)(c1ccccc1)n1ccnc1,1.19 ± 0.017
6,CO/N=C1\CN(c2nc3c(cc2F)c(=O)c(C(=O)O)cn3C2CC2)CC1CN (stereo not given),0.0206 ± 0.00035
7,Clc1ccc(COC(Cn2ccnc2)c2ccc(Cl)cc2Cl)cc1 (stereo not given),0.807 ± 0.051
8,CCCC(C(=O)OCCN(CC)CC)(c1ccccc1)c1ccccc1,0.981 ± 0.053
9,O=S(=O)(O)CCSSCCS(=O)(=O)O,1.02 ± 0.069
10,CN1CCC[C@H]1c1cccnc1,1.05 ± 0.011
11,Cc1cc(CC(C)CC(C)(C)C)n(O)c(=O)c1 (stereo not given),0.0347 ± 0.011
12,NC(=O)c1cccnc1,0.988 ± 0.026
13,Nc1nccs1,0.94 ± 0.028
14,Cn1c(=O)c2c(ncn2CC(O)CO)n(C)c1=O (stereo not given),1.11 ± 0.061
15,CCCc1nc(C(C)(C)O)c(C(=O)OCc2oc(=O)oc2C)n1Cc1ccc(-c2ccccc2-c2nnn[nH]2)cc1,1.005 ± 0.0069
16,C=C(NC(=O)C(=C)NC(=O)c1csc(C2=N[C@@H]3c4csc(n4)[C@H]4NC(=O)c5csc(n5)[C@H]([C@](C)(O)[C@@H](C)O)NC(=O)[C@H]5CSC(=N5)/C(=C/C)NC(=O)[C@H]([C@@H](C)O)NC(=O)c5csc(n5)[C@]3(CC2)NC(=O)[C@H](C)NC(=O)C(=C)NC(=O)[C@H](C)NC(=O)[C@H]([C@@H](C)CC)N[C@@H]2C=Cc3c([C@H](C)O)cc(nc3[C@H]2O)C(=O)O[C@@H]4C)n1)C(N)=O,1 ± 0.09
17,O=C(O)CCc1nc2ccccc2[nH]1,1.05 ± 0.12
18,C[C@@H]1CC2C3C[C@H](F)C4=CC(=O)C=C[C@]4(C)[C@@]3(F)[C@@H](O)C[C@]2(C)[C@@]1(O)C(=O)COC(=O)C(C)(C)C (stereo not given in full),1.04 ± 0.12
19,CCCCCCCCCCCCCCCC[N+](C)(C)C,0.982 ± 0.038
20,NC(=O)C1(N2CCCCC2)CCN(CCCC(=O)c2ccc(F)cc2)CC1,1.02 ± 0.051
21,CC1=C(C(=O)O)N2C(=O)[C@@H](NC(=O)[C@H](N)c3ccc(O)cc3)[C@H]2SC1,1.06 ± 0.054
22,CC(C)(Oc1ccc(C2CC2(Cl)Cl)cc1)C(=O)O (stereo not given),0.881 ± 0.036
23,Nc1ccc(S(N)(=O)=O)cc1,1.01 ± 0.049
24,CCOc1nc2cccc(C(=O)OC(C)OC(=O)OC3CCCCC3)c2n1Cc1ccc(-c2ccccc2-c2nn[nH]n2)cc1 (stereo not given),0.878 ± 0.018
25,CC(CCc1ccc(O)cc1)NCCc1ccc(O)c(O)c1 (stereo not given),0.837 ± 0.066

# Among those listed so far, 5 contain an NH in an aromatic ring:
row,Structure (SMILES),normalized growth
12,Nc1nc(=O)c2c([nH]1)NCC(CNc1ccc(C(=O)N[C@@H](CCC(=O)O)C(=O)O)cc1)N2C=O (stereo not given in full),0.948 ± 0.014
3,CC[C@]1(O)C[C@@H]2CN(CCc3c([nH]c4ccccc34)[C@@](C(=O)OC)(c3cc4c(cc3OC)N(C)[C@H]3[C@@](O)(C(=O)OC)[C@H](OC(C)=O)[C@]5(CC)C=CCN6CC[C@]43[C@@H]65)C2)C1,1.06 ± 0.075
15,CCCc1nc(C(C)(C)O)c(C(=O)OCc2oc(=O)oc2C)n1Cc1ccc(-c2ccccc2-c2nnn[nH]2)cc1,1.005 ± 0.0069
17,O=C(O)CCc1nc2ccccc2[nH]1,1.05 ± 0.12
24,CCOc1nc2cccc(C(=O)OC(C)OC(=O)OC3CCCCC3)c2n1Cc1ccc(-c2ccccc2-c2nn[nH]n2)cc1 (stereo not given),0.878 ± 0.018
